Measured values taken from PubChem BioAssay AID2417 (National Center for Advancing Translational Sciences (NCATS), 2010).
Hit rate of the full screen: of about 140,000 compounds, about 4,300 (3.1%) were called active. Inconclusive results, whose numbers are uncertain, are shown with a selection of clear calls.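 How the source made its calls: active means readout at or below -70, meaning at least 70% loss of cells showing the perinucleolar compartment, a nuclear body marking cancer cells; inconclusive means readout between -30 and a set limit; inactive means the rest.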

Assay: High Content Assay for Compounds that inhibit the Assembly of the Perinucleolar Compartment;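 further: plate controls were DMSO wells for no effect and camptothecin positive control wells for full effect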
Conditions: PC3M PTB-GFP, PNC prevalence imaging, 16 h; at 10 µM; hits give low values
Summary of the method: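 Read-out is percentage of cells bearing a perinucleolar compartment, from automated 20x imaging of fixed, Hoechst-stained PC3M PTB-GFP cells. Cells were seeded 4 h, then exposed 16 h to compound (23 nl of library stock) in duplicate plates.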

Row | Structure (SMILES) | activity change (PNC), negative = inhibition
1 | Cc1cccc[n+]1CC(=O)/C=C1\N(C)c2ccccc2C1(C)C | inconclusive: -45.5%
2 | O=C(Nc1cnn(Cc2ccc(Cl)c(Cl)c2)c1)C12CC3CC(CC(C3)C1)C2 | inconclusive: -33.9%
3 | CCOC(=O)CSc1ccc(S(=O)(=O)N(C)C2CCCCC2)cc1[N+](=O)[O-] | inconclusive: -69.8%
4 | COc1ccc(C(C)(C)C)cc1NC(=O)c1c(C)noc1C | inconclusive: -60.6%
5 | CCC(=O)N1CCCn2c1nc1ccccc12 | inconclusive: -42.1%
6 | COCCn1c(C)cc(C(=O)CSc2nnc(-c3cccnc3)n2-c2ccccc2F)c1C | inactive: -13.6%
7 | CCOC(=O)N1CCN(C(=O)c2ccc(-n3c(C)ccc3C)cc2)CC1 | inactive: -15.3%
8 | COc1ccc(OCCCC(=O)Nc2cc([N+](=O)[O-])ccc2C)cc1 | inactive: 21.9%
9 | COc1cc(/C=N/O)cc(Br)c1OCC(=O)NCc1ccccc1 | inconclusive: -79.2%
10 | Cc1sc(NC(=O)CSc2nnc(-c3ccc(F)cc3)o2)c(C#N)c1C | inactive: -8.87%
11 | Cc1onc(-c2ccccc2Cl)c1C(=O)Nc1ccc(-c2nnc3n2CCCCC3)cc1 | inconclusive: -40.5%
12 | CC(C)(C)NS(=O)(=O)c1ccc(CCC(=O)Nc2ccc3c(c2)OCCO3)cc1 | inactive: -15.4%
13 | CCOC(=O)c1c(-c2ccccc2)nc2ccc(Cl)cn12 | inactive: -19.5%
14 | CC(C)Cn1c(O)c(/C=C2\C=NN=C2c2ccccc2)sc1=S | inconclusive: -48.4%
15 | CC(=O)c1ccc(C(C)(C)c2ccc(C(C)=O)s2)s1 | inconclusive: -62.1%
16 | Cn1c(=O)c2c(nc(CN3CCC(C(N)=O)CC3)n2Cc2ccccc2F)n(C)c1=O | active: -115%
17 | CC(=O)Nc1ccc(C(=O)CSc2cc(C)c3cccc(C)c3n2)cc1 | inactive: 28.2%
18 | CCOc1ccccc1N(CC(=O)Nc1ccccc1C(=O)OC)S(C)(=O)=O | inconclusive: -63.7%
19 | CCc1nc2ccccc2c(=O)n1NCCc1ccccc1 | inconclusive: -46%
20 | CC(C)c1ccc2c(c1)C(=O)NC(C)(C)C2 | inconclusive: -74.1%
21 | CCCN(CCC)C(=O)c1ccccc1C(=O)N(CCC)CCC | inconclusive: -53.9%
22 | CC(C)Cn1cnc2c1c(=O)n(CC(O)c1ccccc1)c(=O)n2CC(C)C (stereo unspecified) | inconclusive: -33.5%
23 | C/C(Cc1ccccc1)=N\NC(=O)c1ccc(F)cc1 | inactive: 85%

Gathered by group, the compounds so far with two or more sulfur atoms.
Row | Structure (SMILES) | activity change (PNC), negative = inhibition
3 | CCOC(=O)CSc1ccc(S(=O)(=O)N(C)C2CCCCC2)cc1[N+](=O)[O-] | inconclusive: -69.8%
10 | Cc1sc(NC(=O)CSc2nnc(-c3ccc(F)cc3)o2)c(C#N)c1C | inactive: -8.87%
14 | CC(C)Cn1c(O)c(/C=C2\C=NN=C2c2ccccc2)sc1=S | inconclusive: -48.4%
15 | CC(=O)c1ccc(C(C)(C)c2ccc(C(C)=O)s2)s1 | inconclusive: -62.1%

Remaining list, next part:

Row | Structure (SMILES) | activity change (PNC), negative = inhibition
24 | CC1=CC(C)(C)Nc2ccc(OC(=O)CCN3C(=O)c4ccccc4C3=O)cc21 | inactive: -2.25%
25 | Cc1cccc(CSc2nc3c(c(=O)[nH]2)CCCC3)c1 | inactive: 84.6%
26 | CCOC(=O)c1nc2ccccc2s1 | inconclusive: -41.1%
27 | Cc1ccnc(NC(=O)c2cccc(NS(=O)(=O)c3ccccc3C)c2)c1 | inconclusive: -39.3%
28 | Cc1cccc(NC(=O)NC(C)C(c2cccs2)N2CCOCC2)c1 (stereo unspecified) | inactive: -21.4%
29 | CCOC1OC(=O)C(Cl)=C1Nc1ccccc1C (stereo unspecified) | inconclusive: -34.6%
30 | COc1cc(/C=N/NC(=O)c2csc3c2CCCC3)cc(OC)c1O | inconclusive: -67.2%
31 | CCc1ccc(OCC(=O)N2c3ccccc3CCc3ccccc32)cc1 | inactive: 1.28%
32 | O=C(c1ccccc1F)N1CCN(c2ncccn2)CC1 | inactive: 126%
33 | Cc1cc(C)nc(SCc2nnc(SCC(=O)Nc3nc(-c4ccccc4)cs3)n2C)n1 | inactive: -11.6%
34 | CCOC(=O)c1c(C)[nH]c(C(=O)OCCOc2ccccc2C)c1C | inactive: 7.63%
35 | CCOC1Cc2ccccc2N(C(N)=O)c2ccccc21 (stereo unspecified) | inconclusive: -35.7%
36 | CC1(C)CC(=O)/C(=C(\O)c2ccccc2)C(=NCCc2ccccc2)C1 | inconclusive: -38.6%
37 | O=C(Nn1c(C2CCCCC2)nc2ccccc2c1=O)c1ccc([N+](=O)[O-])cc1Cl | inconclusive: -44.7%
38 | COCCn1c(-c2ccccc2F)n[nH]c1=S | inconclusive: -61%
39 | CCN(c1ccccc1)c1cc(C)nc2ncnn12 | inconclusive: -53.3%
40 | COc1ccc(/C=C/C(=O)c2ccc(NC(=O)c3cccs3)cc2)cc1OC | active: -82.9%
41 | COc1ccc[nH]c1=O | inconclusive: -74.7%
42 | Cn1c(C(=O)O)c(CC(=O)Nc2ccc3c(c2)OCCO3)c2ccccc21 | inconclusive: -44.7%
43 | COc1ccccc1NCCC(=O)OCC(=O)NCc1ccco1 | inconclusive: -48.3%
44 | C1=C2C[N+]3(CCCC3)CC2Cc2ccc3ccccc3c21 (stereo unspecified) | inconclusive: -49.7%
45 | COc1ccc(/C=N/NC(=O)c2cc(-c3cccn3C)n[nH]2)cc1OC | inactive: 42%
46 | Cc1c(Cl)cccc1NC(=S)NN1CCOCC1 | inactive: 26%

Row | Structure (SMILES) | activity change (PNC), negative = inhibition
47 | N#C/C(=C\c1cn(-c2ccccc2)nc1-c1cc2ccccc2o1)c1nc2ccccc2[nH]1 | inactive: -10.7%
48 | Cc1cccc(C(=O)N=c2c(C#N)cc3c(=O)n4cccc(C)c4nc3n2Cc2ccco2)c1 | inconclusive: -64.5%
49 | O=C(NCc1ccco1)c1ccc(=O)oc1 | active: -82.9%
50 | C=CCc1ccc(OCCCCNC(C)CC)c(OC)c1 (stereo unspecified) | inactive: -23.3%
51 | CCOC(=O)C1=C(C)N=C2SC(C(=O)OC)=CC(=O)N2C1c1cccc(OC)c1 (stereo unspecified) | inconclusive: -30.9%
52 | COCCn1c(SCC(=O)Nc2ncc(C)s2)nc2sc3c(c2c1=O)CCC3 | inconclusive: -71.4%
53 | COc1cccc(/C=C/C(=O)OCC(=O)NCc2ccco2)c1 | inconclusive: -41.6%
54 | COC(=O)Nc1ccc(S(=O)(=O)N2CCCCC2)cc1 | inactive: 19.5%
55 | Cc1ccccc1C(=O)N1CCC(C(=O)Nc2ccc3c(c2)OCCO3)CC1 | inactive: 2.16%
56 | Cc1ccc(C(=O)C2=C(O)C(=O)N(c3ncccn3)C2c2cccc(Cl)c2)o1 (stereo unspecified) | inactive: 1.12%
57 | CC(=O)NCCc1ccc(S(=O)(=O)Nc2cccnc2)cc1 | active: -82.4%
58 | COC(=O)c1ccc(-c2ccc(CNCC(O)c3ccccc3)o2)cc1 (stereo unspecified) | inconclusive: -48%
59 | O=C(NC1CCCCCC1)c1ccc(N2CCCC2=O)cc1 | inconclusive: -40.7%
60 | O=C(COC(=O)c1cc(-c2cccc3ccccc23)nc2ccccc12)NC1CCS(=O)(=O)C1 (stereo unspecified) | inconclusive: -32.5%
61 | COc1ccc(N=C2SCC(=O)N2c2ccc(OC)cc2)cc1 | inactive: 31.9%
62 | O=[N+]([O-])c1cc(S(=O)(=O)Nc2cccc(C(F)(F)F)c2)ccc1-n1nnc2ccccc21 | inactive: 3.02%
63 | CC(C)=CCCC1=CCC(/C(C)=N/NC(N)=O)CC1 (stereo unspecified) | inconclusive: -63.3%
64 | CN(C(=O)CSc1nnc2ccccn12)C1CCS(=O)(=O)C1 (stereo unspecified) | inconclusive: -46%
65 | CCOC(=O)c1ccc(Nc2cc(C)nc(C)c2C(=O)OCC)cc1 | inconclusive: -57.7%
66 | CC1(C)CC(=O)C(C2C3=C(CC(C)(C)CC3=O)Oc3ccccc32)=C(O)C1 (stereo unspecified) | inconclusive: -55.6%
67 | CSC1=Nc2sc3c(c2C2=NCCN12)CCCC3 | inactive: 28.1%
68 | CCc1cc2cc3c(cc2nc1SCC(=O)Nc1nccs1)OCO3 | inactive: 60.1%
69 | Cc1ccc(NC(=O)CC2C(=O)N(Cc3ccccc3)C(=S)N2NC(=O)c2ccccc2)c(C)c1 (stereo unspecified) | inconclusive: -37.5%

Row | Structure (SMILES) | activity change (PNC), negative = inhibition
70 | Cc1ccc(N2/C(=N/c3nc(C)cc(C)n3)NC(=O)CC2C(=O)O)cc1 (stereo unspecified) | inactive: 65.6%
71 | O=C(CSc1nc(-c2ccco2)cc(C(F)(F)F)n1)N1CCc2ccccc2C1 | active: -123%
72 | CCCCCCn1c(C(C)O)nc2ccccc21 (stereo unspecified) | inconclusive: -42%
73 | CC(C)(C)SCCNS(=O)(=O)c1ccccc1 | inactive: 1.6%
74 | NC(=O)C[C@@H]1NC(=O)CNC(=O)c2cc([N+](=O)[O-])cc(I)c2NCCC(C(N)=O)NC1=O (stereo partly specified) | inconclusive: -69.6%
75 | CCCOc1ccc(N2C(=O)C3ON(c4ccccc4)C(c4ccc(O)c(OC)c4)C3C2=O)cc1 (stereo unspecified) | inconclusive: -56.8%
76 | COc1ccc(OC)c(C(=O)CSc2nnc(Cc3cccs3)n2CCc2ccccc2)c1 | inconclusive: -70.3%
77 | CCN(CC)C(=O)c1sc(NC(=O)c2ccc(C)c([N+](=O)[O-])c2)c(C#N)c1C | inconclusive: -43.4%
78 | CCS(=O)(=O)N1CCN(C(=O)c2ccco2)CC1 | inconclusive: -56.7%
79 | CC1CCCC(NC(=O)C2CCCN2S(=O)(=O)c2cccc3nsnc23)C1C (stereo unspecified) | inconclusive: -36.8%
80 | CCc1nnc(NC(=O)CSc2nnc(-c3cc4ccccc4cc3O)n2CCOC)s1 | inconclusive: -46.2%
81 | O=C(NC(=S)NC1CC1)c1cccnc1 | inactive: 56.3%
82 | CC1CCCC(NC(=O)CSc2nnc(N)s2)C1C (stereo unspecified) | inactive: 1.75%
83 | Cc1ccc(-c2nn(-c3ccccc3)cc2C(=O)Nc2ccc(C)c(S(=O)(=O)N3CCOCC3)c2)cc1 | inactive: -25%
84 | COc1ccc(CC(=O)OCc2cc3cccc(C)c3[nH]c2=O)cc1 | inconclusive: -48.7%
85 | COc1ccc(N=C2CCCN2CC(N)=O)cc1 | inactive: -2.68%
86 | Cn1c(=O)n(C)c2cc(NS(=O)(=O)c3ccc4c(c3)CCCC4)ccc21 | inactive: -22.5%
87 | O=C(Cn1c(C2CC2)nc2ccccc2c1=O)Nc1ccc(Br)cc1 | inconclusive: -30.2%
88 | CCOC(=O)C1CCCN(C(=O)CN2C(=O)C(CC)Oc3ccc(C)cc32)C1 (stereo unspecified) | inconclusive: -65.4%
89 | CCC1CCCCN1C(=O)Nc1ccc(F)cc1 (stereo unspecified) | inconclusive: -59.8%
90 | O=C(c1cccc(Br)c1)c1conc1C(=O)c1ccco1 | active: -114%
91 | CCCc1nn(C)c(C(=O)Nc2ccccc2)c1Cl | inactive: 37.1%

Exported in CSV form: part of the list above.
Row,Structure (SMILES),"activity change (PNC), negative = inhibition"
25,Cc1cccc(CSc2nc3c(c(=O)[nH]2)CCCC3)c1,inactive: 84.6%
26,CCOC(=O)c1nc2ccccc2s1,inconclusive: -41.1%
27,Cc1ccnc(NC(=O)c2cccc(NS(=O)(=O)c3ccccc3C)c2)c1,inconclusive: -39.3%
